# Some of the results follow.
# Amino acid sequences for entries named in this document (tags omitted). A change or cut given only in a name is not applied to a line headed by its entry.
# UniProt Q12809: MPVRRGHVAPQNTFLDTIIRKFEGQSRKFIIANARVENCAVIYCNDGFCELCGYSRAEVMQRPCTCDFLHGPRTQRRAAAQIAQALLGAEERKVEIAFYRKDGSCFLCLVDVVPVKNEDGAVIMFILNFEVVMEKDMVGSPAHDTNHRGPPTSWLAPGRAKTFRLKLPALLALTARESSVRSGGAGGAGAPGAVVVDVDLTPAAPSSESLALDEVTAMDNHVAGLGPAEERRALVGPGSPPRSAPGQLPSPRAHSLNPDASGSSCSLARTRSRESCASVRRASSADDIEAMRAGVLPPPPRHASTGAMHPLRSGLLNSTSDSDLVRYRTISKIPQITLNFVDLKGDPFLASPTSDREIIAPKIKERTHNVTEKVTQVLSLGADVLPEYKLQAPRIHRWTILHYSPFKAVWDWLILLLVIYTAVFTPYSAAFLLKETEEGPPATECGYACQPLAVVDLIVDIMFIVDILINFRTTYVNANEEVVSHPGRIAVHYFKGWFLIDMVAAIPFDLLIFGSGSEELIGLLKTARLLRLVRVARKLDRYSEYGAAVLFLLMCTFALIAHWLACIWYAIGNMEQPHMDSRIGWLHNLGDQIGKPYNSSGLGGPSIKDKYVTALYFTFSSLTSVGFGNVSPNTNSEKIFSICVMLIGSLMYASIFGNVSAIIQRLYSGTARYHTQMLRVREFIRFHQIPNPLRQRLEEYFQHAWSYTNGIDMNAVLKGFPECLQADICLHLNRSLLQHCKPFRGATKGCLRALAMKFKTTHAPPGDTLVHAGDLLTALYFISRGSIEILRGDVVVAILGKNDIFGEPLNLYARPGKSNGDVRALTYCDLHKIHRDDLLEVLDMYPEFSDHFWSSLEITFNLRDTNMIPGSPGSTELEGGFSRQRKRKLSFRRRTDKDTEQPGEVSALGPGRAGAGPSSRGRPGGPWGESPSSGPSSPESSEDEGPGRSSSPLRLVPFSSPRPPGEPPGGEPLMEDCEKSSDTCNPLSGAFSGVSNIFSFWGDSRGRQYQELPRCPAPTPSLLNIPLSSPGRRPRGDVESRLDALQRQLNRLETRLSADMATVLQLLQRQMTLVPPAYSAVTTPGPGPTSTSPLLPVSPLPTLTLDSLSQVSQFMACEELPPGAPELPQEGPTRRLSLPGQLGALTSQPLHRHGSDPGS
# UniProt Q06033: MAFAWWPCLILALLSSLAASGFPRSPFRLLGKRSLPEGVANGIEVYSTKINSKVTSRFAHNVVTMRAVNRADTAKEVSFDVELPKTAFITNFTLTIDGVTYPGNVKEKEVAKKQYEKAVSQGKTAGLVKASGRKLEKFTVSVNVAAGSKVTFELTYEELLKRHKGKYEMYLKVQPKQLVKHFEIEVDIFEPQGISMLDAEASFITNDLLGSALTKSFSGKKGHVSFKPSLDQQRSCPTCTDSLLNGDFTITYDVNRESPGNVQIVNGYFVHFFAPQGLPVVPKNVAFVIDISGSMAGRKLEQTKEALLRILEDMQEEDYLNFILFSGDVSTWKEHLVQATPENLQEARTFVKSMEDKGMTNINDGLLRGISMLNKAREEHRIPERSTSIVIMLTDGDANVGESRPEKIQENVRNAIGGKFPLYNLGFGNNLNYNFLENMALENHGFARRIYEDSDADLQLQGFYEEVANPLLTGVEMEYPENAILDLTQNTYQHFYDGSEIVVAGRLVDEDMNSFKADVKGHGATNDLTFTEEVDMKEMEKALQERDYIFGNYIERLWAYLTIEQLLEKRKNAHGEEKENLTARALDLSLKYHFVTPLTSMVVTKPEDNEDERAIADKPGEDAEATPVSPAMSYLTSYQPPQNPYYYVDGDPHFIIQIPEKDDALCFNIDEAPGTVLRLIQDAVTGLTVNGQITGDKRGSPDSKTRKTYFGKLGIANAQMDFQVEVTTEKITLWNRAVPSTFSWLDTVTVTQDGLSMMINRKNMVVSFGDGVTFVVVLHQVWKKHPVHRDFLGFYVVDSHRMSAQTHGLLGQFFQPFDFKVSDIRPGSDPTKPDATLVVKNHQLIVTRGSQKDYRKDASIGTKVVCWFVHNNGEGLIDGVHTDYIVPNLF
# UniProt Q9Y4H2: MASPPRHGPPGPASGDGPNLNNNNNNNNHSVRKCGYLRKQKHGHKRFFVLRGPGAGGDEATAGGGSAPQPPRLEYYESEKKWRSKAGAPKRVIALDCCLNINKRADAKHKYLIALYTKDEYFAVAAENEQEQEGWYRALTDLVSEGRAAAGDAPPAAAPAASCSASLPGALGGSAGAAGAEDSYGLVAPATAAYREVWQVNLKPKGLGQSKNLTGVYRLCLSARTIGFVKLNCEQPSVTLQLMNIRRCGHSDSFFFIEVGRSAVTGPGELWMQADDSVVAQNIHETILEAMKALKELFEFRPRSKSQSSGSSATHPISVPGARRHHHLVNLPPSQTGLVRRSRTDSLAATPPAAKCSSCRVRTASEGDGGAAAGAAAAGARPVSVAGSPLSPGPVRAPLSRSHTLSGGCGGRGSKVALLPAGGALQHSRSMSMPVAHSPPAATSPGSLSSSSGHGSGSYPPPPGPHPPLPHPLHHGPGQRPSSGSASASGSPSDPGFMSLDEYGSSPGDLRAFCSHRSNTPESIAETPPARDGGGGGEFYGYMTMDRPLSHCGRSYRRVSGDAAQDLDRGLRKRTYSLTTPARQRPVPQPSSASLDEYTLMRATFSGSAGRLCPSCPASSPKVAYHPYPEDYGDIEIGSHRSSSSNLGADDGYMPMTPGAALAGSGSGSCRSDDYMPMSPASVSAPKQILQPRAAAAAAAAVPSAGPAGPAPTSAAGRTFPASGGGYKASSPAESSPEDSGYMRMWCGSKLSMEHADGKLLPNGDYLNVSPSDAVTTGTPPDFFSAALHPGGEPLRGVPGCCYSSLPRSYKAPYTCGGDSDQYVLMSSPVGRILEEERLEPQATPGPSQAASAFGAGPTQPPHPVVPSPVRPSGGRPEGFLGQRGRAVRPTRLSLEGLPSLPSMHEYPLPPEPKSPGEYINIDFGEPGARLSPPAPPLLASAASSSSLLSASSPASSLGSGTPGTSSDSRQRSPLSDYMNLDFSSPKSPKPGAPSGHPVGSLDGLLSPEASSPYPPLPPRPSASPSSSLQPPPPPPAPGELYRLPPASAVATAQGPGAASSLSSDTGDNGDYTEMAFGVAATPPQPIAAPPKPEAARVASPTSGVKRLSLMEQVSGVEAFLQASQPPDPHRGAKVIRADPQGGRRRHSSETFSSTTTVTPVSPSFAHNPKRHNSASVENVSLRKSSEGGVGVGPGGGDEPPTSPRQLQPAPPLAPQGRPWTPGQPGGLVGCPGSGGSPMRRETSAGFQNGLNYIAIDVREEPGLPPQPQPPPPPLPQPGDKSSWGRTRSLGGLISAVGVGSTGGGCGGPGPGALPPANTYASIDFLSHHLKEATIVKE
# UniProt P05412, whole entry, looked up: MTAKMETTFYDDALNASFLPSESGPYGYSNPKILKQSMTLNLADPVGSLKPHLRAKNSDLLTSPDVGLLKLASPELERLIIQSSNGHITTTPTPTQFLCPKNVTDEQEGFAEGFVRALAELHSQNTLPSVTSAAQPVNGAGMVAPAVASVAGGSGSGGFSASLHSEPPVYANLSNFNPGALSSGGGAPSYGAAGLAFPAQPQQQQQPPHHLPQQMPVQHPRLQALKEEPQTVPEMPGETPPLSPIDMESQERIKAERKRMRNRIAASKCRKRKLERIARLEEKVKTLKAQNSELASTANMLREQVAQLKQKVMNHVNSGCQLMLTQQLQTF
# UniProt Q96AZ6: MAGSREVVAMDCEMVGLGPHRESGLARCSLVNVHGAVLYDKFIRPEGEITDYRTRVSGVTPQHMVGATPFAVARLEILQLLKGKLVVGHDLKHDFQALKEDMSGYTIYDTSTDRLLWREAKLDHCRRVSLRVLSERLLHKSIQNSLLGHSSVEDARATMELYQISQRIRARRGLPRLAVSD
# UniProt O15554, whole entry, looked up: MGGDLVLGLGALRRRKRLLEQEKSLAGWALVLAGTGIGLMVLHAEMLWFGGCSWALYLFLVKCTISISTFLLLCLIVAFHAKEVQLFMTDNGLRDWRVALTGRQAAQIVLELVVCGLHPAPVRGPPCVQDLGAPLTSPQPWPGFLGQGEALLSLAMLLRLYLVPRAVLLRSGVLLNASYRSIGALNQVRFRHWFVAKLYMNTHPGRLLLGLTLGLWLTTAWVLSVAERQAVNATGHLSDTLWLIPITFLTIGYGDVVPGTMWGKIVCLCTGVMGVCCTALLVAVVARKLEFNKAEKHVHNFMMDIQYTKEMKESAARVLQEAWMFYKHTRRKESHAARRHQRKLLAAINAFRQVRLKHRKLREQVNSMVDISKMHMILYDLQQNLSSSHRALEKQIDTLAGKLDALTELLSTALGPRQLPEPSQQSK
# UniProt Q8NHM5: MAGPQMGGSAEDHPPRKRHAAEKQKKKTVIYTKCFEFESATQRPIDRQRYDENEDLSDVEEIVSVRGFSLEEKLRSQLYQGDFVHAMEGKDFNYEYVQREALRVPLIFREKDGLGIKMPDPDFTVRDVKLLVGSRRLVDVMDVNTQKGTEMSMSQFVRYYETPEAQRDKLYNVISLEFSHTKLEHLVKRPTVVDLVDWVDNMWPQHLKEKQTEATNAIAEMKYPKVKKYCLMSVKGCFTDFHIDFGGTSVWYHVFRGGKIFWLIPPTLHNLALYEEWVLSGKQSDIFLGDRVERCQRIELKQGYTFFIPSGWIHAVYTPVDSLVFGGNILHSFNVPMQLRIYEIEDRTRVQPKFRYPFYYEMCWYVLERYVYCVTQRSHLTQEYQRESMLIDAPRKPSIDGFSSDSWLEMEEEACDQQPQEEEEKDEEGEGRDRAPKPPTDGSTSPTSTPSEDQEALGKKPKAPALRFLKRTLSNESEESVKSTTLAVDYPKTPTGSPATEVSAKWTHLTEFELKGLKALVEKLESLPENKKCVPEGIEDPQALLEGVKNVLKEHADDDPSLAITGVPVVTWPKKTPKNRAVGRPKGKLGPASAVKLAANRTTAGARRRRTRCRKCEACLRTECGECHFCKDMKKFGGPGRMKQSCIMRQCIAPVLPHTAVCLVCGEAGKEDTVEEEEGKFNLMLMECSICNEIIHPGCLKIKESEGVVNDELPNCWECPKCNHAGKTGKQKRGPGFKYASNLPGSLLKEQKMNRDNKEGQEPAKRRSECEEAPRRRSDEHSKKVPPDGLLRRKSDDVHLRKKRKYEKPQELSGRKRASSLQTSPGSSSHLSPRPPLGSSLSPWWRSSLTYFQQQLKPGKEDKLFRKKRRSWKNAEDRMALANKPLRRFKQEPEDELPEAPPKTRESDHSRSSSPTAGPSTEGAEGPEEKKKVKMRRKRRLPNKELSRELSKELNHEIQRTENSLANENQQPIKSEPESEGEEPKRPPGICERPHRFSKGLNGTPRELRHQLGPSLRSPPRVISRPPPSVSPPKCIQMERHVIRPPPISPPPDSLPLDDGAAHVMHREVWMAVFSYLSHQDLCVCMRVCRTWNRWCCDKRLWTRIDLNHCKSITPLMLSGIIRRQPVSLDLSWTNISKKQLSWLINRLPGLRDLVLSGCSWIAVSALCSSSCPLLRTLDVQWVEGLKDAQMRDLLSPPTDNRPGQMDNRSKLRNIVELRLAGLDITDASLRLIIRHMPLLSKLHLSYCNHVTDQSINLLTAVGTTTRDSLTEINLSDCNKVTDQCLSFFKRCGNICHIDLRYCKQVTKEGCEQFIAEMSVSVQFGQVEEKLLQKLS
# UniProt Q63ZY3: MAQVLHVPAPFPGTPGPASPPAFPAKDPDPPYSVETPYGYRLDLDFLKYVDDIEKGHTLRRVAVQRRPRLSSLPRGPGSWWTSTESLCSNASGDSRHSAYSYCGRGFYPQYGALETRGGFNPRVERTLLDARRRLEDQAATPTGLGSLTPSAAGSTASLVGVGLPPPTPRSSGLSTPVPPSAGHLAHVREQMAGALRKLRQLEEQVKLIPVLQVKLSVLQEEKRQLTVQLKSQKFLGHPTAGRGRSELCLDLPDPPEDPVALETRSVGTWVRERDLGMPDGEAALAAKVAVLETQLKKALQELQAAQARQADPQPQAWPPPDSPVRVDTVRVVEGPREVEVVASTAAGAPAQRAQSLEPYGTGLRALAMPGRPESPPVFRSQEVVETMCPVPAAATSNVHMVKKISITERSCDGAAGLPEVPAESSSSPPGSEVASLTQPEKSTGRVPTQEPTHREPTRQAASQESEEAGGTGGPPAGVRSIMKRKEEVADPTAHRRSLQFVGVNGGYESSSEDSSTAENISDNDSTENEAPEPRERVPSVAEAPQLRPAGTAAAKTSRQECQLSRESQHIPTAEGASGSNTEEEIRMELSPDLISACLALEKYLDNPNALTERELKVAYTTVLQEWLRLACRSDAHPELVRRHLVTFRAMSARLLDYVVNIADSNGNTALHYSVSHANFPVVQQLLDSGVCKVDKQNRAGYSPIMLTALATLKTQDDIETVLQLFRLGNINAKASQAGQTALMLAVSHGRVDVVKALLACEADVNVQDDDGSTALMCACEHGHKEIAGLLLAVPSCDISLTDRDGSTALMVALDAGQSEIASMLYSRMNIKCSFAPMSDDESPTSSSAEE
# Columns and labels:
# Assay in all cases: log2 fold change, soluble protein after heating vs DMSO (PISA); higher = thermal stabilisation; K562 lysate, 10 uM; active = over 0.2 and 3.5 SD of the protein, either way, in both replicates (recomputed)
# [1] = compound: NCC(=O)Nc1ccc(-n2nc(C(F)(F)F)cc2-c2ccc3c(ccc4ccccc43)c2)cc1
# Summary of the method: (§1)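 Following dounce homogenisation of K562 pellets in PBS pH 7.4 with 1 mM MgCl2, crude extract at 1 mg/mL protein was incubated for 30 min with 10 μM compound. Aliquots were then heated for 3 min over 48°C-58°C and pooled, NP-40 was added to 0.5% at 4°C, and soluble protein was recovered as the supernatant at 21,000xg for 90 min. Channel-sum-equalised TMTpro 16plex LC-MS/MS quantified this protein. Each value, from duplicates, is a log-two fold change in thermal stability relative to solvent controls.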
# [2] = compound: O=C1NC(=O)C(c2cnc3ccccn23)=C1c1cn2c3c(cc(F)cc13)CN(C(=O)N1CCCCC1)CC2
# Summary of the method: as §1
# [3] = compound: c1cn2cc(-c3ccc4cn[nH]c4c3)nc(Nc3ccc(N4CCOCC4)cc3)c2n1 [entospletinib]
# Summary of the method: as §1
# [4] = compound: O=C(CCCCCCC(=O)Nc1ccccc1)NO [vorinostat]
# Summary of the method: as §1
# [5] = compound: O=C(O)c1ccc2c(c1)nc(Nc1cccc(Cl)c1)c1ccncc12 [silmitasertib]
# Summary of the method: as §1
target,measurement,setting,value
JAK1 (UniProt P23458),log2 fold change,[1],inactive: -0.004
same,log2 fold change,[2],inactive: 0.032
same,log2 fold change,[3],inactive: -0.02
NA (UniProt J3KR12),log2 fold change,[1],inactive: 0.143
same,log2 fold change,[3],inactive: -0.136
KCNH2 (UniProt Q12809),log2 fold change,[4],inactive: 0.26
same,log2 fold change,[5],inactive: -0.116
same,log2 fold change,[2],inactive: 0.019
INTS6L (UniProt Q5JSJ4),log2 fold change,[4],inactive: -0.01
same,log2 fold change,[5],inactive: 0.003
ITPRIP (UniProt Q8IWB1),log2 fold change,[4],inactive: -0.33
same,log2 fold change,[5],inactive: 0.095
KCTD16 (UniProt Q68DU8),log2 fold change,[2],inactive: 0.047
ITIH3 (UniProt Q06033),log2 fold change,[4],inactive: 0.203
same,log2 fold change,[5],inactive: -0.054
same,log2 fold change,[3],inactive: -0.033
IRS2 (UniProt Q9Y4H2),log2 fold change,[4],inactive: -0.034
same,log2 fold change,[5],inactive: -0.065
same,log2 fold change,[2],inactive: 0.14
ITPRID2 (UniProt P28290),log2 fold change,[4],inactive: -0.049
same,log2 fold change,[5],inactive: 0
same,log2 fold change,[3],inactive: 0.05
KAT2A (UniProt Q92830),log2 fold change,[2],inactive: 0.045
same,log2 fold change,[3],inactive: -0.023
KALRN (UniProt O60229),log2 fold change,[2],inactive: -0.042
JUN (UniProt P05412),log2 fold change,[4],inactive: 0.028
same,log2 fold change,[5],inactive: -0.05
same,log2 fold change,[2],inactive: 0.023
same,log2 fold change,[3],inactive: -0.105
KANSL1 (UniProt Q7Z3B3),log2 fold change,[4],inactive: -0.108
same,log2 fold change,[5],inactive: -0.03
same,log2 fold change,[3],inactive: 0
ISG20 (UniProt Q96AZ6),log2 fold change,[4],inactive: 0.106
same,log2 fold change,[5],inactive: -0.037
KCNN4 (UniProt O15554),log2 fold change,[4],inactive: 0.215
same,log2 fold change,[5],inactive: 0.122
same,log2 fold change,[2],inactive: -0.107
ITPR1 (UniProt Q14643),log2 fold change,[1],inactive: 0
same,log2 fold change,[2],inactive: -0.126
same,log2 fold change,[3],inactive: 0.162
JADE2 (UniProt Q9NQC1),log2 fold change,[3],inactive: 0.073
KCTD2 (UniProt Q14681),log2 fold change,[1],inactive: 0.185
same,log2 fold change,[2],inactive: -0.056
same,log2 fold change,[3],inactive: -0.225
KDM2B (UniProt Q8NHM5),log2 fold change,[4],inactive: 0.143
same,log2 fold change,[5],inactive: -0.083
same,log2 fold change,[2],inactive: -0.256
same,log2 fold change,[3],inactive: -0.131
IRF9 (UniProt Q00978),log2 fold change,[4],inactive: -0.148
same,log2 fold change,[5],inactive: 0.055
KANK2 isoform 2 (UniProt Q63ZY3),log2 fold change,[1],inactive: 0.089
same,log2 fold change,[3],inactive: 0.208

# Fetched one by one from the list above:
target,measurement,setting,value
ISG20 (UniProt Q96AZ6),log2 fold change,[5],inactive: -0.037
IRS2 (UniProt Q9Y4H2),log2 fold change,[2],inactive: 0.14

# Source: the supplement of paper PMC10849652
